Laboratory results: paper PMC11624278

Amino acid sequences for entries named in this document (tags omitted). Residues count along the entry.
UniProt P08648, residues 42-1049: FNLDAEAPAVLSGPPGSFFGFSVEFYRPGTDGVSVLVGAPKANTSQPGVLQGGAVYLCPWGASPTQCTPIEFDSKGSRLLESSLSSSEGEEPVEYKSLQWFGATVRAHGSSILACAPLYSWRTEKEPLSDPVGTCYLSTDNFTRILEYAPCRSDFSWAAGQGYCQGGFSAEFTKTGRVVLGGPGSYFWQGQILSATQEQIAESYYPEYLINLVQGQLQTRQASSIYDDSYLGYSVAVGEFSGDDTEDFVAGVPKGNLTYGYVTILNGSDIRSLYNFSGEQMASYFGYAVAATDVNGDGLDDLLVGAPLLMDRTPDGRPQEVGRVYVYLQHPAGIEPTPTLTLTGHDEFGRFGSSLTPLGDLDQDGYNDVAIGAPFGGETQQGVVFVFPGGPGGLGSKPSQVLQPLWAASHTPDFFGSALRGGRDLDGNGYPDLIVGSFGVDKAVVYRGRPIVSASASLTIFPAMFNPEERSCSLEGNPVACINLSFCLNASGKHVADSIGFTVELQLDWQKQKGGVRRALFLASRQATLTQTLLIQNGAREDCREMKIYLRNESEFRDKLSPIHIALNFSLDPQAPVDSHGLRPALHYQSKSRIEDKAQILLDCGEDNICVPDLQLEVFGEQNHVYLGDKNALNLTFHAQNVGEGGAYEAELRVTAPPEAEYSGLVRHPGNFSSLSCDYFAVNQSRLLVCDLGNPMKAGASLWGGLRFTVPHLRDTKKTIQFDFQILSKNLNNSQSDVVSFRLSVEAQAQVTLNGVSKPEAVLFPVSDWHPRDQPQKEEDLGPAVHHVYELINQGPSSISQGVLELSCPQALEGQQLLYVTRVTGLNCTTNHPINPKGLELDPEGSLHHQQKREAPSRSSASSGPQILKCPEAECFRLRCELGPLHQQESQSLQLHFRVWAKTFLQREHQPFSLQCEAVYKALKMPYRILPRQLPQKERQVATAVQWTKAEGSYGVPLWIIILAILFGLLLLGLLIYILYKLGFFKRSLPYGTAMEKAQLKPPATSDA
UniProt P09055, residues 21-798: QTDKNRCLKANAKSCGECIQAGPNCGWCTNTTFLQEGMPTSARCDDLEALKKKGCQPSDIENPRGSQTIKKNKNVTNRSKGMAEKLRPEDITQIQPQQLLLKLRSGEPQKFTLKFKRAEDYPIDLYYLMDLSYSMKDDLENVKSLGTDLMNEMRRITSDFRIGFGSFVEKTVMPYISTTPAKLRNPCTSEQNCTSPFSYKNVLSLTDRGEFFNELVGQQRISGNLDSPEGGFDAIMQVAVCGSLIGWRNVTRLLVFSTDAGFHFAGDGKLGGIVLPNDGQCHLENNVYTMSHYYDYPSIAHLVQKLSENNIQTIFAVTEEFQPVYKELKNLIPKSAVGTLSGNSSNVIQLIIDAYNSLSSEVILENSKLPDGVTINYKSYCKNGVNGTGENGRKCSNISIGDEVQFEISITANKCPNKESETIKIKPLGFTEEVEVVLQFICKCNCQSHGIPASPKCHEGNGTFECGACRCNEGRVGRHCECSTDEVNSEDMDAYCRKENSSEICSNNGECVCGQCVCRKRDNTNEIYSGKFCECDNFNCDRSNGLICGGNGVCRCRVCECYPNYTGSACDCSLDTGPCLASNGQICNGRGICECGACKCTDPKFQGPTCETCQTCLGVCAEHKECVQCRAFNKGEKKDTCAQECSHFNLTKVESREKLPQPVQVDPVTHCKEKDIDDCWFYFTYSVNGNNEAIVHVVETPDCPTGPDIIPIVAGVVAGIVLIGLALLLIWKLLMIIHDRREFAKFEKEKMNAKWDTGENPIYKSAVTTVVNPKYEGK
UniProt P70398: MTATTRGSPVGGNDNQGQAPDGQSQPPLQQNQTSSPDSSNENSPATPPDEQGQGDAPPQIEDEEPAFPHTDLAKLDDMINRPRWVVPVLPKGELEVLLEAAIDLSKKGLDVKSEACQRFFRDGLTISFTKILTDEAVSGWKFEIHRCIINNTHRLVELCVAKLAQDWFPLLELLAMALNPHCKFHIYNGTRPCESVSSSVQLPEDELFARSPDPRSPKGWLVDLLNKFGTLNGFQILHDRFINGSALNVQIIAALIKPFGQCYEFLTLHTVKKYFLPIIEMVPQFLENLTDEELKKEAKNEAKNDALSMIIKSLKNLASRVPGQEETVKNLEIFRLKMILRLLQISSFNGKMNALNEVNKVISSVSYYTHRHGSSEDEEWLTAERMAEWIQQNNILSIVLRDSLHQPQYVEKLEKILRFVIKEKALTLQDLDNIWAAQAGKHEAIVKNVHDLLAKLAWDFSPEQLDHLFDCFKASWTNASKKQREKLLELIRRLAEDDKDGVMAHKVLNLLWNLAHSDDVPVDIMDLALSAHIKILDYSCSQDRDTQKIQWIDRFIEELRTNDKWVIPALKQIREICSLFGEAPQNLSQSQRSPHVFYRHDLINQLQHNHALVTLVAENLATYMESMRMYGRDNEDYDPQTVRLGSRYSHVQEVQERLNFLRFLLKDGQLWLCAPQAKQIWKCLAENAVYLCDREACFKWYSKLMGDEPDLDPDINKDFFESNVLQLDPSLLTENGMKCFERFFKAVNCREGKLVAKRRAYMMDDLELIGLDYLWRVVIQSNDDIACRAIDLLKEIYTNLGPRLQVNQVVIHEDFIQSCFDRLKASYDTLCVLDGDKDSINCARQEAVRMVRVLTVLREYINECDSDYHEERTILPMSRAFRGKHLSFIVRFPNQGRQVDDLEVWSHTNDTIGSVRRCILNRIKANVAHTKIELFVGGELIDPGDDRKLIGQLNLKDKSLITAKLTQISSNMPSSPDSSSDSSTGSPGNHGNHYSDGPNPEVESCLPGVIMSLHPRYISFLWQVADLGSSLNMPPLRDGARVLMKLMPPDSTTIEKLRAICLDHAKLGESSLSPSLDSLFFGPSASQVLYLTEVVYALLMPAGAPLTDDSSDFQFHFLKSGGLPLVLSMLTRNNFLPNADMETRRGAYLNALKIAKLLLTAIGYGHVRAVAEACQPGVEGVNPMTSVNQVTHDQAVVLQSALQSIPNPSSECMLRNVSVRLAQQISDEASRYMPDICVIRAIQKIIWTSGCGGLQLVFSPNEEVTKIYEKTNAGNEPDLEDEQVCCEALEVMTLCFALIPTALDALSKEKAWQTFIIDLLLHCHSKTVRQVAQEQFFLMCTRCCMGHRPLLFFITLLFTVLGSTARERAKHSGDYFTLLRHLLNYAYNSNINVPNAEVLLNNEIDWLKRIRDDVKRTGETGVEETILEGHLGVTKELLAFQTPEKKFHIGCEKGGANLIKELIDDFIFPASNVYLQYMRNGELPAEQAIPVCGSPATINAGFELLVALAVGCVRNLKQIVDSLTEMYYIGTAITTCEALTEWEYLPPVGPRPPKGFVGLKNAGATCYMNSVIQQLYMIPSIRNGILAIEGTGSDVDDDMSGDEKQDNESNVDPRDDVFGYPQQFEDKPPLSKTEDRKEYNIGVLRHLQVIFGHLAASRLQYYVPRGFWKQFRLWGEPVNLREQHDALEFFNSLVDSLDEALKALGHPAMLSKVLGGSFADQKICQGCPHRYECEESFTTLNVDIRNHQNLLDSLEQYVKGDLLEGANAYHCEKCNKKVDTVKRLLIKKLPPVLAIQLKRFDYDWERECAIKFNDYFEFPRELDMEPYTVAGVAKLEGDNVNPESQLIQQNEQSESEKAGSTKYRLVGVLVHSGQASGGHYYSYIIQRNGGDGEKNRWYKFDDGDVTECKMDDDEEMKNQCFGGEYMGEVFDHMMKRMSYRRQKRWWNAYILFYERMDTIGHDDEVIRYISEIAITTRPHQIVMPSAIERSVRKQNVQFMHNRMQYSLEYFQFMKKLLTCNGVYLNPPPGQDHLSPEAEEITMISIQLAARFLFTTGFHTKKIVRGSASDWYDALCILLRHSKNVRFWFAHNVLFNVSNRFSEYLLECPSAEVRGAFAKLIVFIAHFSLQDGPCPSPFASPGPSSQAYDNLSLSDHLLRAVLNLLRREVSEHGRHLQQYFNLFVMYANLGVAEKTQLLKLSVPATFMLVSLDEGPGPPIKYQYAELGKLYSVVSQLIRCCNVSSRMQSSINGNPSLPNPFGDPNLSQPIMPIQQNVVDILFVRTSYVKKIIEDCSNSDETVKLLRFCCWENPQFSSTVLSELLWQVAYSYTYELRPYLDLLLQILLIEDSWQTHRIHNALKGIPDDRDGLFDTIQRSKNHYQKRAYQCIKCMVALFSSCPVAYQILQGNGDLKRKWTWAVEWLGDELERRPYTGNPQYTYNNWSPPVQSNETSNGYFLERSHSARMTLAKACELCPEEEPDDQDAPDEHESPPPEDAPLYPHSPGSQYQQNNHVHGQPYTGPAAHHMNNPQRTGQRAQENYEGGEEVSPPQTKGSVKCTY
UniProt Q9D9M2: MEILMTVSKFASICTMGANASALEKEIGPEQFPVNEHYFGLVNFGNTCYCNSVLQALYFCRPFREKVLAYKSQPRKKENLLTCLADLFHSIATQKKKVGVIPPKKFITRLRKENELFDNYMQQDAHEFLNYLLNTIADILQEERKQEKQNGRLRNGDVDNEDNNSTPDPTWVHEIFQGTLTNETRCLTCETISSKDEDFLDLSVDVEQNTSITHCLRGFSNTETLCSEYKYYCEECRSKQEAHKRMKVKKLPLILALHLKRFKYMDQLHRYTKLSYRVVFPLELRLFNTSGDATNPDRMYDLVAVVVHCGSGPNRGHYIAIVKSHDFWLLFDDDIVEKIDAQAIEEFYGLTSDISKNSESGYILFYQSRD
UniProt Q9JMA1: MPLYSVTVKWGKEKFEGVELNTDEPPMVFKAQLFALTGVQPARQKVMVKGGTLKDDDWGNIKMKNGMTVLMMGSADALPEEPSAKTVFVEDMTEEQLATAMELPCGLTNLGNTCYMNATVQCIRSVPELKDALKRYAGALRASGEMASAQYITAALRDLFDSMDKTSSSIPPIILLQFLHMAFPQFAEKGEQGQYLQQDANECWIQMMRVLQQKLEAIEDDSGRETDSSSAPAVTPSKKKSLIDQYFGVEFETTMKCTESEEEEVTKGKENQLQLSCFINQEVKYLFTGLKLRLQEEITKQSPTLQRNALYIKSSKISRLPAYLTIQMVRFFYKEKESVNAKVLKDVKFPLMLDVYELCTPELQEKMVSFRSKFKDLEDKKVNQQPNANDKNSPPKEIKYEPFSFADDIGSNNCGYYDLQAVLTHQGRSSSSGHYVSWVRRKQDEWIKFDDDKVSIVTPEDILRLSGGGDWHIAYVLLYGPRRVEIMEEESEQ
UniProt P62069: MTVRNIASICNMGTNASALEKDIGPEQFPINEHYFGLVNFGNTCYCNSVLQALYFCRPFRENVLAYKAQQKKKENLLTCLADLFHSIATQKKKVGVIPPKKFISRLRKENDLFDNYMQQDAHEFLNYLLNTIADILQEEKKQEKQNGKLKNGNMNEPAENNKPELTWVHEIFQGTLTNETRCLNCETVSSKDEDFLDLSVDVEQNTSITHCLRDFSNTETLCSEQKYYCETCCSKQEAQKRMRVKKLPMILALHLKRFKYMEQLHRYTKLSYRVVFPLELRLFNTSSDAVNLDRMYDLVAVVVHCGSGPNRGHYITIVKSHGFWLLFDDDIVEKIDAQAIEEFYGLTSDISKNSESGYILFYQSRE
UniProt Q8BH57: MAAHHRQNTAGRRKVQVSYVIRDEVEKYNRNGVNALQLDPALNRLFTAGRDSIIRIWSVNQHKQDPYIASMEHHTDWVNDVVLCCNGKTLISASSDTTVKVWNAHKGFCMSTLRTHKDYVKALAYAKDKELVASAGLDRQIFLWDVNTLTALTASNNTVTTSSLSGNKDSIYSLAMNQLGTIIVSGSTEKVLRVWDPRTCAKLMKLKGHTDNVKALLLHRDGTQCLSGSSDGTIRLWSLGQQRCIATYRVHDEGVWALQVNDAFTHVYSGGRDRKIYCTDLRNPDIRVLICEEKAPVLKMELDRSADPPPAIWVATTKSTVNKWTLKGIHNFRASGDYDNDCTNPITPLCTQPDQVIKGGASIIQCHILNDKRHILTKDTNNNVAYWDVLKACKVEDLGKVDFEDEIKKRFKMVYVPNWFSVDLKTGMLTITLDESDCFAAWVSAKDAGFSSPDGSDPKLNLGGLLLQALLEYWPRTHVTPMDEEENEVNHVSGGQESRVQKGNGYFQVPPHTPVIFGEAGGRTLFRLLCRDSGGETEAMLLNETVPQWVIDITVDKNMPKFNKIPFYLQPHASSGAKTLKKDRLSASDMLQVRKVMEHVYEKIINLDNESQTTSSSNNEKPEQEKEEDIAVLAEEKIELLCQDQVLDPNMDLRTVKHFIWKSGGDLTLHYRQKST

Assays:
[1] = target: miniTurbo-tagged Itga5 (human) (UniProt P08648); experiment: proximity labelling; miniTurbo on the cytosolic tail of human Itga5 in mouse kidney fibroblasts; 50 µM biotin 30 min at 37 °C; streptavidin magnetic beads; label-free MS; Itgb1-KO fibroblasts expressing Itga5-miniTurbo as control
[2] = target: β1 integrin (Itgb1) (mouse (endogenous in mouse kidney fibroblasts)) (UniProt P09055); experiment: cross-linking + affinity purification with mass spectrometry; fibroblasts cross-linked in vivo with DSP (0.1 mg/ml in PBS, 30 min on ice); IP with homemade anti-β1 integrin antibody and protein A/G agarose; MS

binding [1]: no binding
Molecule: USP9X (from UniProt P70398 1-2559) (enzyme)

binding [1]: binds
binding [2]: no binding
Molecule: USP12 (from UniProt Q9D9M2 1-370) (enzyme)

binding [1]: no binding
Molecule: USP14 (from UniProt Q9JMA1 1-493) (enzyme)

binding [1]: binds
binding [2]: no binding
Molecule: USP46 (from UniProt P62069 1-366) (enzyme)

binding [1]: binds
binding [2]: no binding
Molecule: WDR48 (from UniProt Q8BH57 1-676)

binding [1]: no binding
B1: OTUD6B (enzyme, UniProt Q8K2H2 1-294)
chain: MEEVVAEELDDEEQLVRRHRKEKKELQAKIQGMKNAVPKNDKKRRKQLTEDVAKLEREMEQKHREELEQLKQLTFKDSKIDSVAVNISNLVLENQPPRISKAQKRREKKAALEKEREERIAEAEIENLSGARHLESEKLAQILAARELEIKQIPSDGHCMYGALEDQLREQDCALTVASLRRQTAEYMQTHSDDFLPFLTNPSTGDMYTPEEFGKYCDDIVNTAAWGGQLELRALSHILQTPIEILQADAPPIIVGEEYPRNPLVLVYMRHAYGLGEHYNSVTRLVNSATENCS

binding [1]: no binding
B2: BAP1 (enzyme, UniProt Q99PU7 1-728)
chain: MNKGWLELESDPGLFTLLVEDFGVKGVQVEEIYDLQSKCQGPVYGFIFLFKWIEERRSRRKVSTLVDDTSVIDDDIVNNMFFAHQLIPNSCATHALLSVLLNCSNVDLGPTLSRMKDFTKGFSPESKGYAIGNAPELAKAHNSHARPEPRHLPEKQNGLSAVRTMEAFHFVSYVPITGRLFELDGLKVYPIDHGPWGEDEEWTDKARRVIMERIGLATAGEPYHDIRFNLMAVVPDRRIKYETRLHVLKVNRQTVLEALQQLIRVTQPELIQTHKSQESQLPEESKPASSKSPLGLEAGRTPVASECTQTDGAEEVAGSCPQTTTHSPPSKCKLVVKPPGSSLNGVPPNPAPIVQRLPAFLDNHNYAKSPMQEEEDLAAGVGRSRVPVRAPQQYSEDEDDYEDEDEDVQNTNPAIRYKRKGTGKPGSLSNSSDGQLSVLQPNTINVLTEKLQESQKDLSVPLSIKTSSGAGSPAVAVPTHSQPSPTPSNESTDTASEIGSAFNSPLRSPIRSANPTRPSSPVTSHISKVLFGEDDSLLRVDCIRYNRAVRDLGPVISTGLLHLAEDGVLSPLALTEGGKGSSPSTRSSQGSQGSSGLEEKEVVEVTESRDKPGLNRSSEPLSGEKYSPKELLALLKCVEAEIANYEACLKEEVEKRKKFKIDDQRRTHNYDEFICTFISMLAQEGMLANLVEQNISVRRRQGVSIGRLHKQRKPDRRKRSRPYKAKRQ

These are yes or no findings as the source states them, for the method shown. Binding seen in cells or lysates may run through a third protein. These calls come from enrichment with a bait or labelling near it, and not all partners need be listed. A no says only that the protein was not detected with the bait. One block for each molecule: values may come before it.
